# Results reported in patent publication EP4714976A1.
# Chains of the proteins cited; added tags and fusions are not shown. Lines headed by an entry give the natural chain unless they say otherwise; changes in a name come on top. A line that says so, or that is headed by a name, gives the form on record, which may keep a tag or linker.
# human FGFR2b (Kaixia Biotechnology, catalog number FGR-HM1BB) (P21802, form named): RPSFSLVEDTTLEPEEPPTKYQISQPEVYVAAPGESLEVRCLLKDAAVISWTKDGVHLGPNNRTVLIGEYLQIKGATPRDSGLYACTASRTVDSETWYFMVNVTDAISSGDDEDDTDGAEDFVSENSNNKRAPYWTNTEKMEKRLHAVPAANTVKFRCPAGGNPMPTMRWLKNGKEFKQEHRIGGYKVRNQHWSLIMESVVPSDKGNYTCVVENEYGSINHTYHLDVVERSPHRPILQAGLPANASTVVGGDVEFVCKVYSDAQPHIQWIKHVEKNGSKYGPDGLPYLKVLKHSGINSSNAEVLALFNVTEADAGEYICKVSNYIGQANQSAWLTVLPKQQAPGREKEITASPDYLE
# These are yes or no findings as the source states them, for the method shown. Some binding calls cover weakened binding; strength is not graded here. Tags and fused reporters may be left off the sequences shown.
# Target: human FGFR2b (Kaixia Biotechnology, catalog number FGR-HM1BB) (human) (UniProt P21802)
# Experiment: ELISA, antibody 1ug/mL
row,binding,Binder
1,binds,3A12 scFv-Fc (Fc fusion) EVQLQQSGAELVKPGASVKMSCKASGYTFSFYNVHWVRQTPGQGLEWIGLIYPDNGDTSYNQKFKAKATLTADKSSSAAYMQLSSLTSEDSAVYYCARGGFDYWGQGTSLTVSSGGGGSGGGGSGGGGSDIVMTQSHKFMSTSVGDRVNITCKASQDVSTAVAWYQQKPGQSPKLLIYSASYRYSGVPDRFTGSGSGTDFTFTISSVQAEDLAVYYCQQHYSTPYTFGGGTKLEMKESKYGPPCPPCPAPEAAGGPSVFLFPPKPKDTLMISRTPEVTCVVVDVSQEDPEVQFNWYVDGVEVHNAKTKPREEQFNSTYRVVSVLTVLHQDWLNGKEYKCKVSNKGLPSSIEKTISKAKGQPREPQVYTLPPSQEEMTKNQVSLTCLVKGFYPSDIAVEWESNGQPENNYKTTPPVLDSDGSFFLYSKLTVDKSRWQEGNVFSCSVMHEALHNHYTQKSLSLSLG
2,binds,3F10 scFv-Fc (Fc fusion) EVQLQQSGAELVKPGASVKMSCKASGYTFSFYNIHWVRQTPGQGLEWIGLIYPDNGDTSYNQKFKAKATLTADKSSSTAYMQLSSLTSEDSAVYYCARGGFDYWGQGTTLTVSSGGGGSGGGGSGGGGSDVLMTQSPASLSASVGETVTITCGASENIYGALNWYQRKQGKSPQLLIYGATNLADGMSSRFSGSGSGRQYSLKISSLHPDDVATYYCQNVLSTPYTFGGGTKLEIKESKYGPPCPPCPAPEAAGGPSVFLFPPKPKDTLMISRTPEVTCVVVDVSQEDPEVQFNWYVDGVEVHNAKTKPREEQFNSTYRVVSVLTVLHQDWLNGKEYKCKVSNKGLPSSIEKTISKAKGQPREPQVYTLPPSQEEMTKNQVSLTCLVKGFYPSDIAVEWESNGQPENNYKTTPPVLDSDGSFFLYSKLTVDKSRWQEGNVFSCSVMHEALHNHYTQKSLSLSLG
3,binds,3H6 scFv-Fc (Fc fusion) QVQLQQSGAELVKPGASVKMSCKASGYTFSFYNIHWVRQTPGQGLEWIGLIYPDNGDTSYNQKFKAKATLTADKSSSTAYMQLSSLTSEDSAVYYCARGGFDYWGQGTTLTVSSGGGGSGGGGSGGGGSDIQMTQSPASLSASVGETVTITCRASENIYSYLAWYQQKQGKSPQLLVYNAKTLAEGVPSRFSGSGSGTQFSLKINSLQPEDFGSYYCQHHYGTPYTFGGGTKLEMKESKYGPPCPPCPAPEAAGGPSVFLFPPKPKDTLMISRTPEVTCVVVDVSQEDPEVQFNWYVDGVEVHNAKTKPREEQFNSTYRVVSVLTVLHQDWLNGKEYKCKVSNKGLPSSIEKTISKAKGQPREPQVYTLPPSQEEMTKNQVSLTCLVKGFYPSDIAVEWESNGQPENNYKTTPPVLDSDGSFFLYSKLTVDKSRWQEGNVFSCSVMHEALHNHYTQKSLSLSLG
4,binds,2B1 scFv-Fc (Fc fusion) EVQLQQSGAELVKPGASVKMSCKASGYTFASYNLHWVKQTPGQGLEWIGLIYPENGDTSYNQKFKGKATLTADKSSSTAYIQLSSLTSEDSAVYFCARGGFDYWGQGTSLTVSSGGGGSGGGGSGGGGSDIQMIQSPASLSVSVGETVTITCRASENIYSNLAWYQQKQGKSPQLLVYNAKTLADGVPSRFSGSGSGTQYSLKINSLQPEDFGSYYCQHFWSTPYTFGGGTKLEIKESKYGPPCPPCPAPEAAGGPSVFLFPPKPKDTLMISRTPEVTCVVVDVSQEDPEVQFNWYVDGVEVHNAKTKPREEQFNSTYRVVSVLTVLHQDWLNGKEYKCKVSNKGLPSSIEKTISKAKGQPREPQVYTLPPSQEEMTKNQVSLTCLVKGFYPSDIAVEWESNGQPENNYKTTPPVLDSDGSFFLYSKLTVDKSRWQEGNVFSCSVMHEALHNHYTQKSLSLSLG
5,binds,3E7 scFv-Fc (Fc fusion) QVQLQQSGAELVKPGASVKMSCKASGYTFTIYNIHWVRQTPGQGLEWIGLIYPDNGDTSYNQKFKAKATLTADKSSSTAYMQLSSLTSEDSAVYYCARGGFDYWGQGTTLTVSSGGGGSGGGGSGGGGSNIVMTQSQKFMSTSVGDRVSVTCKASQNVGTNVAWYQQKPGQSPKALIYSASYRYSGVPDRFTGSGSGTDFTLTISGVQAEDLADYYCQQHYNTPYTFGGGTKLEIKESKYGPPCPPCPAPEAAGGPSVFLFPPKPKDTLMISRTPEVTCVVVDVSQEDPEVQFNWYVDGVEVHNAKTKPREEQFNSTYRVVSVLTVLHQDWLNGKEYKCKVSNKGLPSSIEKTISKAKGQPREPQVYTLPPSQEEMTKNQVSLTCLVKGFYPSDIAVEWESNGQPENNYKTTPPVLDSDGSFFLYSKLTVDKSRWQEGNVFSCSVMHEALHNHYTQKSLSLSLG

# Second part, the binder before the results:
row,Binder,binding
1,3D6 scFv-Fc (Fc fusion) QVQLQQSGAELVKPGASVKMSCKASGYTFRYYNMHWVKRTPGQGLEWIGLIYPDNGDTSYNQKFKGKATLTADTSSSTAYMQLSSLTSEDSAVYYCARGGLDYWGQGTSLTVSSGGGGSGGGGSGGGGSDIQMTQSPASLSVSVGETVTITCRASENIYSNLAWYQQKQGKSPQLLVYNAKTLADGVPSRFSGSGSGTQYSLKINSLQPEDFGSYYCQHFWSTPFTFGSGTKLELKESKYGPPCPPCPAPEAAGGPSVFLFPPKPKDTLMISRTPEVTCVVVDVSQEDPEVQFNWYVDGVEVHNAKTKPREEQFNSTYRVVSVLTVLHQDWLNGKEYKCKVSNKGLPSSIEKTISKAKGQPREPQVYTLPPSQEEMTKNQVSLTCLVKGFYPSDIAVEWESNGQPENNYKTTPPVLDSDGSFFLYSKLTVDKSRWQEGNVFSCSVMHEALHNHYTQKSLSLSLG,binds
2,3F5 scFv-Fc (Fc fusion) EIQLQQSGAELVKPGASVKMSCKASGYTFRYYNMHWVKRTPGQGLEWIGLIYPDNGDTSYNQKFKGKATLTADTSSSTAYMQLSSLTSEDSAVYYCARGGLDYWGQGTTLTVSSGGGGSGGGGSGGGGSDIVLTQSPASLSASVGETVTITCGASENIYGALNWYQRKQGKSPQLLIYGATNLADGMSSRFSGSGSGRQYSLKISSLHPDDVATYYCQNVLSTPYTFGGGTKLEIKESKYGPPCPPCPAPEAAGGPSVFLFPPKPKDTLMISRTPEVTCVVVDVSQEDPEVQFNWYVDGVEVHNAKTKPREEQFNSTYRVVSVLTVLHQDWLNGKEYKCKVSNKGLPSSIEKTISKAKGQPREPQVYTLPPSQEEMTKNQVSLTCLVKGFYPSDIAVEWESNGQPENNYKTTPPVLDSDGSFFLYSKLTVDKSRWQEGNVFSCSVMHEALHNHYTQKSLSLSLG,binds
3,3C9 scFv-Fc (Fc fusion) EIQLQQSGAELVKPGASVKMSCKASGYIFRYYNMHWVKRTPGQGLEWIGLIYPDNGDTSYNQKFKGKATLTADTSSSTAYMQLSSLTSEDSAVYYCARGGLDYWGQGTTLTVSSGGGGSGGGGSGGGGSDIQMIQSPASLSASVGETVTITCGASENIYGALNWYQRKQGKSPQLLIYGATNLADGMSSRFSGSGSGRQYSLKISSLHPDDVATYYCQNVLSTPYTFGGGTKLEIKESKYGPPCPPCPAPEAAGGPSVFLFPPKPKDTLMISRTPEVTCVVVDVSQEDPEVQFNWYVDGVEVHNAKTKPREEQFNSTYRVVSVLTVLHQDWLNGKEYKCKVSNKGLPSSIEKTISKAKGQPREPQVYTLPPSQEEMTKNQVSLTCLVKGFYPSDIAVEWESNGQPENNYKTTPPVLDSDGSFFLYSKLTVDKSRWQEGNVFSCSVMHEALHNHYTQKSLSLSLG,binds
4,3E3 scFv-Fc (Fc fusion) QVQLQQPGAVLVKPGASVRMSCKASGYTFPYYNVHWVKRTPGQGLEWIGLIYPDNGDTSYNQKFTGKATLTADTSSSTAYMQLSSLTSEDSAVYYCARGGLDYWGQGTTLTVSAGGGGSGGGGSGGGGSDVQITQSPASLSASVGETVTITCGASENIYGALNWYQRKQGKSPQLLIYGATNLADGMSSRFSGSGSGRQYSLKISSLHPDDVATYYCQNVLSTPYTFGGGTKLEIKESKYGPPCPPCPAPEAAGGPSVFLFPPKPKDTLMISRTPEVTCVVVDVSQEDPEVQFNWYVDGVEVHNAKTKPREEQFNSTYRVVSVLTVLHQDWLNGKEYKCKVSNKGLPSSIEKTISKAKGQPREPQVYTLPPSQEEMTKNQVSLTCLVKGFYPSDIAVEWESNGQPENNYKTTPPVLDSDGSFFLYSKLTVDKSRWQEGNVFSCSVMHEALHNHYTQKSLSLSLG,binds
